# For some assays here: Shown are results outside the selection of strong results, which stands elsewhere. The entries are a selection whose mix differs from that of the whole data set.
# Chains of the proteins cited; added tags and fusions are not shown. Lines headed by an entry give the natural chain unless they say otherwise; changes in a name come on top.
# UniProt P08581: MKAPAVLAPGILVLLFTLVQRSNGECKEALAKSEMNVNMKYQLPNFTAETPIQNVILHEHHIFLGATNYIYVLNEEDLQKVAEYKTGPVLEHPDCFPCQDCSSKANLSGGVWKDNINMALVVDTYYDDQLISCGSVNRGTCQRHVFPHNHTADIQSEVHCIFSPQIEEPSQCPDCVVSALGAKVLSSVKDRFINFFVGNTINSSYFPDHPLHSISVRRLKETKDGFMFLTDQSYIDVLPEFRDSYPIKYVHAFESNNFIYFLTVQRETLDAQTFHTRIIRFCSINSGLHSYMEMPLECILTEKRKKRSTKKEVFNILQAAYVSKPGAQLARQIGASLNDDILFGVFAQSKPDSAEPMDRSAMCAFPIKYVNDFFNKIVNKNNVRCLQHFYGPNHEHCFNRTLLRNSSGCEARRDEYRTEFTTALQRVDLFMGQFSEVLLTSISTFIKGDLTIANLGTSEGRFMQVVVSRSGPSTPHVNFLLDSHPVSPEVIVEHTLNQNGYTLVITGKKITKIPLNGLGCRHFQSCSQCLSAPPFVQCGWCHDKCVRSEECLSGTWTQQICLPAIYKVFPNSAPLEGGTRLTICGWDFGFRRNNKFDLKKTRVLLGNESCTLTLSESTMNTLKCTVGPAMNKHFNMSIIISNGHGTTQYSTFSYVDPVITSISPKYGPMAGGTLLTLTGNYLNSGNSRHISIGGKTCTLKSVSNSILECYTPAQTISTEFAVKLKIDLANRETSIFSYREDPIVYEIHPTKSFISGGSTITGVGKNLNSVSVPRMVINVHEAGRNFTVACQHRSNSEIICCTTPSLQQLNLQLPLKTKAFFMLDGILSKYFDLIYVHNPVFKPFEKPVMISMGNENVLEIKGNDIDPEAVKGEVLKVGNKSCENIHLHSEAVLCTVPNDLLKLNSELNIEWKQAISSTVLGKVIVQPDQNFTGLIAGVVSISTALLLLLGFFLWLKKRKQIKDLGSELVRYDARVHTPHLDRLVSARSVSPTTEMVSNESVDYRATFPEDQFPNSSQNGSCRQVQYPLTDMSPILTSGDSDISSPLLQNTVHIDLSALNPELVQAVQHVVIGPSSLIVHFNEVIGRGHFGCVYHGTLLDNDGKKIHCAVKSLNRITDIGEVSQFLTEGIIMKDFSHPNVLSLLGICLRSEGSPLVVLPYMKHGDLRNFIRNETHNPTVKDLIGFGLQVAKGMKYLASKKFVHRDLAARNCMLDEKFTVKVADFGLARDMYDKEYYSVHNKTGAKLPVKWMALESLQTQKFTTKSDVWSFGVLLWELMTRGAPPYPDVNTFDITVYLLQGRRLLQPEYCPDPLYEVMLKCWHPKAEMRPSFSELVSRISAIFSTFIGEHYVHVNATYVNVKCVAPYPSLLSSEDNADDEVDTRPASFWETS
# UniProt Q9HBH9: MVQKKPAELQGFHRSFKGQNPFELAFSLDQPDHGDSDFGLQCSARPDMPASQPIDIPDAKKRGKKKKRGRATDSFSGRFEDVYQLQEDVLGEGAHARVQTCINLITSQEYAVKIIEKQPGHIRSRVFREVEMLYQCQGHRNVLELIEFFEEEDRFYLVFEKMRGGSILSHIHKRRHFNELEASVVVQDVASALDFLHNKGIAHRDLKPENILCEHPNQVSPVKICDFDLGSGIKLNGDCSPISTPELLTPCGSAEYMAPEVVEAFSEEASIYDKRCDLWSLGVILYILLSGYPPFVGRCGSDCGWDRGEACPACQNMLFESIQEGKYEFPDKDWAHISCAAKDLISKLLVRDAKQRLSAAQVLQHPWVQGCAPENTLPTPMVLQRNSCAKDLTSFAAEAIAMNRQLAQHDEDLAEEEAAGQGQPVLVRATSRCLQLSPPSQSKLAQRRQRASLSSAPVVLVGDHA
# UniProt O15146: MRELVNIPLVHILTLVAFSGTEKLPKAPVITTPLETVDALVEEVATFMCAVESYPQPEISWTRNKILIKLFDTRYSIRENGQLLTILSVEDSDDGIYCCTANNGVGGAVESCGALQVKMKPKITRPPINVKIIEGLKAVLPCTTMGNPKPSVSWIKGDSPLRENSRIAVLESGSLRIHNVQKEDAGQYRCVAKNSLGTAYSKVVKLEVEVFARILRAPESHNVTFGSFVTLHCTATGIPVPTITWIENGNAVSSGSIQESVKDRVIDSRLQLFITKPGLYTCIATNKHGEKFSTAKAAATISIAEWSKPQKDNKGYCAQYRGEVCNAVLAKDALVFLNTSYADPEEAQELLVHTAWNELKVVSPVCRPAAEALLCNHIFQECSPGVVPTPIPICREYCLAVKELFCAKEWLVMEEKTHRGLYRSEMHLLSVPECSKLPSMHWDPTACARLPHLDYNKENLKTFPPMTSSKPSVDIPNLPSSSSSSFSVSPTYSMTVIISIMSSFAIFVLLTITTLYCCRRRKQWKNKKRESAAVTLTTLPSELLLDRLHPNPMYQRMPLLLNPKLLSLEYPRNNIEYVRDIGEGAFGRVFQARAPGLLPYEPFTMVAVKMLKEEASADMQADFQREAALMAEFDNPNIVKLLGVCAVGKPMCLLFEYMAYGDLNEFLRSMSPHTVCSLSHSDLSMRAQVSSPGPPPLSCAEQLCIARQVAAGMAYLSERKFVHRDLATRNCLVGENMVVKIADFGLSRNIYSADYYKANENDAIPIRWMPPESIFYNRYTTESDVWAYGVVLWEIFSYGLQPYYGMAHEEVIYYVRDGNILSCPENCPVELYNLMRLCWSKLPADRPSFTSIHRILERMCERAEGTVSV
# UniProt Q02763: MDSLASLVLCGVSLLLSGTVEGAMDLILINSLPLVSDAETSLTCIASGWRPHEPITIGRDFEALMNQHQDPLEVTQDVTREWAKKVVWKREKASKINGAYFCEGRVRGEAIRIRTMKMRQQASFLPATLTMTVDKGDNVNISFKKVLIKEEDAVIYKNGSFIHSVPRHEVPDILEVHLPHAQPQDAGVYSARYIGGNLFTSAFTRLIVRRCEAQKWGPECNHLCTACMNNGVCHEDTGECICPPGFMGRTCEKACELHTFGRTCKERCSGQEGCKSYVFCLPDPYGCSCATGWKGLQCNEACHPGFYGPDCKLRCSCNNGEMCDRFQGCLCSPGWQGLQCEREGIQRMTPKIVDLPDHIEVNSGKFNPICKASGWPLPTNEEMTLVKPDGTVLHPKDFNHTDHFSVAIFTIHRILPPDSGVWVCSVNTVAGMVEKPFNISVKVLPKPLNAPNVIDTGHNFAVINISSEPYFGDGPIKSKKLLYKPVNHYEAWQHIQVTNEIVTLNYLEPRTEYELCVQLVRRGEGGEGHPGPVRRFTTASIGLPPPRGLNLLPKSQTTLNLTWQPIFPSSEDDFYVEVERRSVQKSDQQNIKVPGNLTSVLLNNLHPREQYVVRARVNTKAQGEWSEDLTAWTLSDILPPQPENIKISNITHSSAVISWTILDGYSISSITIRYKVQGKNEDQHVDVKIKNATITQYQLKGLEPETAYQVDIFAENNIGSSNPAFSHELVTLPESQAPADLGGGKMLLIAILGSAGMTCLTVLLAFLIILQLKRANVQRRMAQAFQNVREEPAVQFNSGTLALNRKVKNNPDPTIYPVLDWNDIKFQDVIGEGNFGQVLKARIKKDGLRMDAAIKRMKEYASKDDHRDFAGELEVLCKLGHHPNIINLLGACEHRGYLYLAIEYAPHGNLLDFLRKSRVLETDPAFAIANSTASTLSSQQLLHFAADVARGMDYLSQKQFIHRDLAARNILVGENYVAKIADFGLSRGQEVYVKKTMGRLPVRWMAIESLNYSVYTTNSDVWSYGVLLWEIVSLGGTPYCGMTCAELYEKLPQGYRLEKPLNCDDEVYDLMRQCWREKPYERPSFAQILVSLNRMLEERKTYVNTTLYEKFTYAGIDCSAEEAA
# UniProt Q86Y07: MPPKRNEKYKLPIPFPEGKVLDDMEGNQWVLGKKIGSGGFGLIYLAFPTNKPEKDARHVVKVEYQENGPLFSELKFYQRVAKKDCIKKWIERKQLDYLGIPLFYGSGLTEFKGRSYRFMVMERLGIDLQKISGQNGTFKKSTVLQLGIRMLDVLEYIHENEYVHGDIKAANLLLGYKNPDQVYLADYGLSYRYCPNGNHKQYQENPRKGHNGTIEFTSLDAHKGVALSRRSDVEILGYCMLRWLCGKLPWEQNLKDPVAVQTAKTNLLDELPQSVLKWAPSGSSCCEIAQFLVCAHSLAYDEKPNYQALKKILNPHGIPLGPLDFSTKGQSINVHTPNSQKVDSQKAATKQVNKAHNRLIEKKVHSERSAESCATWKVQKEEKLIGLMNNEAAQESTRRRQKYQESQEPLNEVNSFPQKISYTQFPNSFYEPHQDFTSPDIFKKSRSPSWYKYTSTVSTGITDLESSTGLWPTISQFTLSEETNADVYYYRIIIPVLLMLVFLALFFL
# UniProt P43403: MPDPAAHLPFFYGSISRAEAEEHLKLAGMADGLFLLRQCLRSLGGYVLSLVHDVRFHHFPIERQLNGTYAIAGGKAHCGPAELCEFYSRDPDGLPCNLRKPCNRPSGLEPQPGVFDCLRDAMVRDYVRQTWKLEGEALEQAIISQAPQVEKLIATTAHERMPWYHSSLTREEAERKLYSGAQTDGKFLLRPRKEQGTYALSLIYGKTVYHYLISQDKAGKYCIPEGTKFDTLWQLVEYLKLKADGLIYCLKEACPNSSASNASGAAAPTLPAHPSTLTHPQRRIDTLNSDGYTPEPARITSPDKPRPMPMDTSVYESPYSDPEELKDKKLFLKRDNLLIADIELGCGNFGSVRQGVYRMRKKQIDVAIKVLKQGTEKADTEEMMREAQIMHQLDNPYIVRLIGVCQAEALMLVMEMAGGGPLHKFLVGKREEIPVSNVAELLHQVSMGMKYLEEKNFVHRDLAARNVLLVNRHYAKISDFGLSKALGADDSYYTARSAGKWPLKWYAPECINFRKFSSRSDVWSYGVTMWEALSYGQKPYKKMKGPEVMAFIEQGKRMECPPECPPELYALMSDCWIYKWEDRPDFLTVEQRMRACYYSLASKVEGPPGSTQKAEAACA
# UniProt O43293: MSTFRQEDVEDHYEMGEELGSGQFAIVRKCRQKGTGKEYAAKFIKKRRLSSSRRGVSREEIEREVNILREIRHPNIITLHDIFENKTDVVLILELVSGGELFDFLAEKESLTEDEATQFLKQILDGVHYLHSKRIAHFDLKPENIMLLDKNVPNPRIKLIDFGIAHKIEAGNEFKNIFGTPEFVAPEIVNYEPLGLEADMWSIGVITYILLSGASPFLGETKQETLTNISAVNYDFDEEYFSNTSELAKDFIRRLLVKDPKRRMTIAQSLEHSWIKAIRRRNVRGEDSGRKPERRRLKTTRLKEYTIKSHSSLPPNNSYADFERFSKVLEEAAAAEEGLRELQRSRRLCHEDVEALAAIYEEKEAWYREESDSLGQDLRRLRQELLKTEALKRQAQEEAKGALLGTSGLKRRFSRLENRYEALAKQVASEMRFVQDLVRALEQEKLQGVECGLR
# UniProt P10721, whole entry: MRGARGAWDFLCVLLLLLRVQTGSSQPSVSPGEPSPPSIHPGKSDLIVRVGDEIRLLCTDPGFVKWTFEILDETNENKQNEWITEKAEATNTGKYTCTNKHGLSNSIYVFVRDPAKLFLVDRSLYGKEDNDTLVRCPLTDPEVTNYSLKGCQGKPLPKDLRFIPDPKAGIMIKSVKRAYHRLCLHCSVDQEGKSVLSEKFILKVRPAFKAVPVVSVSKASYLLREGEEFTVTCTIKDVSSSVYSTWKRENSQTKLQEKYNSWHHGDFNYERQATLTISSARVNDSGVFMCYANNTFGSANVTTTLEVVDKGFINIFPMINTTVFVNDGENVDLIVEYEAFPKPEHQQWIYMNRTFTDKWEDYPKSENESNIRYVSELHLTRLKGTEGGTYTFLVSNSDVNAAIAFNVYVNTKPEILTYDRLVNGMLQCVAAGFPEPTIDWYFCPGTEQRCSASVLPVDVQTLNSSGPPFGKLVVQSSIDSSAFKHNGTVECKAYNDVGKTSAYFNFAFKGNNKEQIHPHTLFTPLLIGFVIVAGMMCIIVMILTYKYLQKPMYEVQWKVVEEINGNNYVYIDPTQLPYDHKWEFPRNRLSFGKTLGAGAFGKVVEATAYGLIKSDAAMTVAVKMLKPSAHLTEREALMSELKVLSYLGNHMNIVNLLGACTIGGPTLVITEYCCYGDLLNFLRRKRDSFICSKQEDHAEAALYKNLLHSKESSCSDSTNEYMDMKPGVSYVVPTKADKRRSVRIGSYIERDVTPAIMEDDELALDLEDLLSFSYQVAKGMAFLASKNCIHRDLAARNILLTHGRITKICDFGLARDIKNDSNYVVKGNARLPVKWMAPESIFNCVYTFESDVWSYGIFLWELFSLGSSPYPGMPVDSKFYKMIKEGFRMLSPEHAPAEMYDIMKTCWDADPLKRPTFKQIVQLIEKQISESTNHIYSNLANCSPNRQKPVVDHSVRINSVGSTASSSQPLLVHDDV
# Experiments:
# [1] = molecular target: Tyrosine-protein kinase Mer (Homo sapiens) (UniProt Q12866); details: at 1 µM
# [2] = molecular target: Tyrosine-protein kinase Mer (Homo sapiens) (UniProt Q12866); details: at 10 µM
# [3] = molecular target: Hepatocyte growth factor receptor (Homo sapiens) (UniProt P08581); details: at 1 µM
# [4] = molecular target: Hepatocyte growth factor receptor (Homo sapiens) (UniProt P08581); details: at 10 µM
# [5] = molecular target: MAP kinase-interacting serine/threonine-protein kinase 2 (Homo sapiens) (UniProt Q9HBH9); details: at 1 µM
# [6] = molecular target: MAP kinase-interacting serine/threonine-protein kinase 2 (Homo sapiens) (UniProt Q9HBH9); details: at 10 µM
# [7] = molecular target: Muscle, skeletal receptor tyrosine-protein kinase (Homo sapiens) (UniProt O15146); details: at 1 µM
# [8] = molecular target: Muscle, skeletal receptor tyrosine-protein kinase (Homo sapiens) (UniProt O15146); details: at 10 µM
# [9] = molecular target: Serine/threonine-protein kinase Nek11 (Homo sapiens) (UniProt Q8NG66); details: at 1 µM
# [10] = molecular target: Serine/threonine-protein kinase Nek11 (Homo sapiens) (UniProt Q8NG66); details: at 10 µM
# [11] = molecular target: Serine/threonine-protein kinase Nek2 (Homo sapiens) (UniProt P51955); details: at 1 µM
# [12] = molecular target: Serine/threonine-protein kinase Nek2 (Homo sapiens) (UniProt P51955); details: at 10 µM
# [13] = molecular target: Serine/threonine-protein kinase Nek3 (Homo sapiens) (UniProt P51956); details: at 1 µM
# [14] = molecular target: Serine/threonine-protein kinase Nek3 (Homo sapiens) (UniProt P51956); details: at 10 µM
# [15] = molecular target: Serine/threonine-protein kinase tousled-like 2 (Homo sapiens) (UniProt Q86UE8); details: at 1 µM
# [16] = molecular target: Serine/threonine-protein kinase tousled-like 2 (Homo sapiens) (UniProt Q86UE8); details: at 10 µM
# [17] = molecular target: Testis-specific serine/threonine-protein kinase 1 (Homo sapiens) (UniProt Q9BXA7); details: at 1 µM
# [18] = molecular target: Testis-specific serine/threonine-protein kinase 1 (Homo sapiens) (UniProt Q9BXA7); details: at 10 µM
# [19] = molecular target: Testis-specific serine/threonine-protein kinase 2 (Homo sapiens) (UniProt Q96PF2); details: at 1 µM
# [20] = molecular target: Testis-specific serine/threonine-protein kinase 2 (Homo sapiens) (UniProt Q96PF2); details: at 10 µM
# [21] = molecular target: Tyrosine-protein kinase Tec (Homo sapiens) (UniProt P42680); details: at 1 µM
# [22] = molecular target: Tyrosine-protein kinase Tec (Homo sapiens) (UniProt P42680); details: at 10 µM
# [23] = molecular target: Angiopoietin-1 receptor (Homo sapiens) (UniProt Q02763); details: at 1 µM
# [24] = molecular target: Angiopoietin-1 receptor (Homo sapiens) (UniProt Q02763); details: at 10 µM
# [25] = molecular target: High affinity nerve growth factor receptor (Homo sapiens) (UniProt P04629); details: at 1 µM
# [26] = molecular target: High affinity nerve growth factor receptor (Homo sapiens) (UniProt P04629); details: at 10 µM
# [27] = molecular target: BDNF/NT-3 growth factors receptor (Homo sapiens) (UniProt Q16620); details: at 1 µM
# [28] = molecular target: BDNF/NT-3 growth factors receptor (Homo sapiens) (UniProt Q16620); details: at 10 µM
# [29] = molecular target: Tyrosine-protein kinase TXK (Homo sapiens) (UniProt P42681); details: at 1 µM
# [30] = molecular target: Tyrosine-protein kinase TXK (Homo sapiens) (UniProt P42681); details: at 10 µM
# [31] = molecular target: Serine/threonine-protein kinase ULK2 (Homo sapiens) (UniProt Q8IYT8); details: at 1 µM
# [32] = molecular target: Serine/threonine-protein kinase ULK2 (Homo sapiens) (UniProt Q8IYT8); details: at 10 µM
# [33] = molecular target: Serine/threonine-protein kinase ULK3 (Homo sapiens) (UniProt Q6PHR2); details: at 1 µM
# [34] = molecular target: Serine/threonine-protein kinase ULK3 (Homo sapiens) (UniProt Q6PHR2); details: at 10 µM
# [35] = molecular target: Serine/threonine-protein kinase VRK2 (Homo sapiens) (UniProt Q86Y07); details: at 1 µM
# [36] = molecular target: Serine/threonine-protein kinase VRK2 (Homo sapiens) (UniProt Q86Y07); details: at 10 µM
# [37] = molecular target: Serine/threonine-protein kinase WNK2 (Homo sapiens) (UniProt Q9Y3S1); details: at 1 µM
# [38] = molecular target: Serine/threonine-protein kinase WNK2 (Homo sapiens) (UniProt Q9Y3S1); details: at 10 µM
# [39] = molecular target: Serine/threonine-protein kinase WNK3 (Homo sapiens) (UniProt Q9BYP7); details: at 1 µM
# [40] = molecular target: Serine/threonine-protein kinase WNK3 (Homo sapiens) (UniProt Q9BYP7); details: at 10 µM
# [41] = molecular target: Tyrosine-protein kinase Yes (Homo sapiens) (UniProt P07947); details: at 1 µM
# [42] = molecular target: Tyrosine-protein kinase Yes (Homo sapiens) (UniProt P07947); details: at 10 µM
# [43] = molecular target: Tyrosine-protein kinase ZAP-70 (Homo sapiens) (UniProt P43403); details: at 1 µM
# [44] = molecular target: Tyrosine-protein kinase ZAP-70 (Homo sapiens) (UniProt P43403); details: at 10 µM
# [45] = molecular target: Death-associated protein kinase 3 (Homo sapiens) (UniProt O43293); details: at 1 µM
# [46] = molecular target: Death-associated protein kinase 3 (Homo sapiens) (UniProt O43293); details: at 10 µM
# [47] = molecular target: RAF proto-oncogene serine/threonine-protein kinase (Homo sapiens) (UniProt P04049); details: at 1 µM
# [48] = molecular target: RAF proto-oncogene serine/threonine-protein kinase (Homo sapiens) (UniProt P04049); details: at 10 µM
# [49] = molecular target: Mast/stem cell growth factor receptor Kit (Homo sapiens) (UniProt P10721); details: at 1 µM
# [50] = molecular target: Mast/stem cell growth factor receptor Kit (Homo sapiens) (UniProt P10721); details: at 10 µM
# [51] = molecular target: Proto-oncogene tyrosine-protein kinase Src (Homo sapiens) (UniProt P12931); details: at 1 µM
# [52] = molecular target: Proto-oncogene tyrosine-protein kinase Src (Homo sapiens) (UniProt P12931); details: at 10 µM
# [53] = molecular target: Eukaryotic elongation factor 2 kinase (Homo sapiens) (UniProt O00418); details: at 1 µM
# [54] = molecular target: Eukaryotic elongation factor 2 kinase (Homo sapiens) (UniProt O00418); details: at 10 µM
# [55] = molecular target: Serine/threonine-protein kinase mTOR (Homo sapiens) (UniProt P42345); details: at 1 µM
# [56] = molecular target: Serine/threonine-protein kinase mTOR (Homo sapiens) (UniProt P42345); details: at 10 µM
compound,measurement,setting,value
O=C1Nc2ccc(-c3cccnc3)cc2/C1=C\c1ccc[nH]1,residual activity,[1],8%
same,residual activity,[2],1%
same,residual activity,[3],62%
same,residual activity,[4],10%
same,residual activity,[5],47%
same,residual activity,[6],14%
same,residual activity,[7],25%
same,residual activity,[8],2%
same,residual activity,[9],40%
same,residual activity,[10],8%
same,residual activity,[11],65%
same,residual activity,[12],33%
same,residual activity,[13],98%
same,residual activity,[14],54%
same,residual activity,[15],38%
same,residual activity,[16],5%
same,residual activity,[17],21%
same,residual activity,[18],2%
same,residual activity,[19],88%
same,residual activity,[20],61%
same,residual activity,[21],103%
same,residual activity,[22],32%
same,residual activity,[23],34%
same,residual activity,[24],10%
same,residual activity,[25],1%
same,residual activity,[26],1%
same,residual activity,[27],6%
same,residual activity,[28],-12%
same,residual activity,[29],53%
same,residual activity,[30],12%
same,residual activity,[31],46%
same,residual activity,[32],8%
same,residual activity,[33],37%
same,residual activity,[34],7%
same,residual activity,[35],inactive: 88%
same,residual activity,[36],39%
same,residual activity,[37],inactive: 80%
same,residual activity,[38],55%
same,residual activity,[39],inactive: 99%
same,residual activity,[40],58%
same,residual activity,[41],14%
same,residual activity,[42],2%
same,residual activity,[43],98%
same,residual activity,[44],109%
same,residual activity,[45],91%
same,residual activity,[46],38%
same,residual activity,[47],69%
same,residual activity,[48],63%
same,residual activity,[49],104%
same,residual activity,[50],63%
same,residual activity,[51],68%
same,residual activity,[52],32%
same,residual activity,[53],inactive: 83%
same,residual activity,[54],112%
same,residual activity,[55],107%
same,residual activity,[56],100%
